Among the data in PubChem BioAssay AID1508600 (Functional Genomics Laboratory (NCATS/FGL), 2020) are z-score values, retold here.

Among all 53,000 sequences or so, about 3,700 (7%) were called active.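 The calls were made as follows: active = gene knockdowns whose robust z-score for IL-1 alpha signal is at least 2 or at most -2, so actives lie on both sides; inactive = the rest.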 Some of the results follow.

The assay is described as follows: Components of the Cytosolic LPS Sensing Pathway: Gene Identification via Genome-wide siRNA Screen.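 Also: robust z of the log signal after scaling to non-targeting control siRNA wells of the plate.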 The settings on record: RAW264.7 macrophages, IL-1a HTRF, actives lie on both sides, screened at 100 nM (by protocol), cells primed 5 h with Pam3CSK4 first. In a few lines:
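Knockdown: 100 nM siRNA, 48h, RAW264.7. Stimulation: Pam3CSK4 5 h, then LipidA via TransIT-TKO 24 h. Output: supernatant IL-1a HTRF, negative-control-normalized, log robust z-score; viability by CellTiter-Glo.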
Consider CCGCCCGCUCAACACUAAUTT against Zfp36l3, for which the z-score was active: -2.39.

In the case of “GGAGAGGAGAGUCUUGGAATT against 3110082I17Rik”, the z-score is inactive: 0.0202.

On to GGCGGUCAAGGGAAAAACATT against Tcf7, for which the z-score was active: 2.19.

Consider GGUCUGUAUCCCACUUUUCTT against Dalrd3, for which the z-score is active: -2.15.

In the case of CCAAUAUGCUCAGUAUUACTT against Eya4, the z-score was inactive: -1.36.

Take GGAGUUCUUGGAGCAUCAGTT against Zfp526: the z-score was inactive: -0.23.

In the case of GUAUGCCCACAUUCCAGACTT against Npff, the z-score is inactive: 0.768.

Turning to GGUUUCGAACUGAUGAAGCTT against Nemf, the z-score was inactive: 0.284.

For GGUAGCUAUUAUCAACAACTT against Prss21, the z-score was inactive: 1.38.

For GGUUGACUGAAUGAUGGAATT against Tcl1b3, the z-score is inactive: -0.724.

Regarding GGGACCAAAGGAAACUUCATT against Eif2s3y, the z-score is inactive: -0.14.

As for GCCUGUGUGAUUGCUUCAGTT against Plac8, the z-score is inactive: -0.00919.

For the sequence CCUCCUGUUUUUUUCUGUGTT against Olfr96, the z-score is inactive: 0.646.

As to GGAACUGAUAACCAGCCAGTT against Nhej1, the z-score was inactive: -1.28.

GCCUUUAUUAAGGUUGAAATT against Vcl: the z-score is inactive: -1.23.

With GGCUUCAUCAAGGUUCAGCTT against Rassf1, the z-score was inactive: -0.961.

As for CCAAGUCACGCACCAAAAATT against Zfp64, the z-score was inactive: -0.538.

Turning to GAUCUUAUAUGUUGGUGGUTT against Vmn1r29, the z-score is inactive: -0.31.

Take GGGAAGCUUUUCUUAUCAGTT against V1rb6: the z-score was inactive: -0.447.

Take GGAGAAGCCUGGAAGGAAATT against Smim11: the z-score was inactive: -0.205.

CCAAACUAUACUGACAGGUTT against Ppp4r2: the z-score was inactive: 1.18.

As to GCGGCGAAAAAGAUGCAUGTT against Hbq1a, the z-score was inactive: -0.522.

CGCUCCAUUGCUCAGUAUUTT against Vtn: the z-score is inactive: 1.63.

In the case of GGAAAACAUUAAGAGUACATT against Kdelr3, the z-score is inactive: 0.127.

Consider GGAACGUGAUGAAGUGGUCTT against Tex13c3, for which the z-score is inactive: 0.0524.

For CGUCCUGUCGCUGAUUAAATT against Tcl1, the z-score is inactive: 0.323.

For the sequence GCCACGUACAACCUCUUCUTT against Grhl3, the z-score is inactive: 1.43.

For GGCAAUGAGUUCUGGAGUGTT against Capn8, the z-score is inactive: -0.928.

Consider GGUGCUGUUGGUAUAUUAUTT against Ssr2, for which the z-score was inactive: -1.27.

Regarding GGAAAACACCGCAUAUAAUTT against Ss18l1, the z-score was inactive: 0.43.

As for CCUACUAAACUCAGUCUUUTT against Kap, the z-score was inactive: 1.08.

Regarding GGACUUACAAUCCACCAGATT against Hpgds, the z-score was inactive: 0.174.

For the sequence GGAUCUGAGUGCUCUACUGTT against Kctd20, the z-score is active: 2.08.

For GGAGAGGAAGCCUAUGAACTT against Zfp180, the z-score is inactive: -0.768.

With GUUCAUUCUUGAAGGCCUGTT against Olfr1039, the z-score was inactive: 0.23.

In the case of CGGUCAAUACAAAUGCACUTT against Fcrl5, the z-score was inactive: 1.06.

For GGAAGCUGAACUCCUGAAATT against Stmn4, the z-score was inactive: -1.05.

Turning to GGGAAAGCAGAUCCACAACTT against Adh1, the z-score was inactive: -0.351.

Regarding GGAAUUUGCCAAAGACCUGTT against Phf13, the z-score is inactive: -0.763.

Consider GCCAGUUUAAGUCUCUCCATT against Tmem168, for which the z-score is active: -2.37.

Regarding GCUAAGUAAUCAAUUGCUATT against Bhlhe40, the z-score is inactive: 0.448.

Turning to GGUGGAAUAUUUCAUGGACTT against Csnk2a1, the z-score was active: 3.43.

Take GGACAACUAUUUUGUGAGATT against Kcnj9: the z-score is inactive: 0.0557.

For GGCAAAUCAUUGAUCAGAATT against Mtrf1, the z-score is inactive: -0.214.

For CCAGUAAGGCUUUUAUAUATT against Hjurp, the z-score is inactive: -0.0758.

Turning to GCUAUCGAUUGUUACACCGTT against Adrb2, the z-score was inactive: 0.686.

For the sequence GGUUAUCGGUUGUACAUAUTT against Chd3, the z-score was inactive: 1.03.

Turning to CCUGGUUAUAACUCUAAAGTT against Rad54l, the z-score was inactive: 0.652.

GGGAAAAAAAAGCUCUUAATT against Usp43: the z-score was inactive: 0.441.

With CGAGGUCUGUGCUUAUGAGTT against Tcaf1, the z-score is inactive: 0.0249.

GGAGUUCUUGGUCUCUUUGTT against Fam214a: the z-score was inactive: -0.124.

For the sequence GCUUAACUCUAGAGUAUGCTT against Pzp, the z-score was inactive: 1.11.

GGUCCUUACCUCCAAUCCATT against Fndc5: the z-score was inactive: -0.877.

For the sequence GCAACUCUGAGGUUGCUAGTT against Pgam1, the z-score was inactive: -0.12.

GCUAGUAUUAAAGAAGAGCTT against Myh10: the z-score was inactive: 0.803.

For GGUUCAACUCUCUUUUUGATT against Atp8b5, the z-score was inactive: 0.347.

Regarding CCGUGGGAUUUAAGAUAUCTT against Rab34, the z-score is inactive: -0.931.

As to CCUCGCUAUAGAUUUUAACTT against Art2b, the z-score is inactive: -0.0958.

In the case of GGUUAUACCAGUCAUGACATT against BC005537, the z-score was inactive: -0.204.

For the sequence GGUUACUGCUACCUAUAACTT against Myot, the z-score is inactive: 0.59.

Regarding GGCUGGAAAAAAUUCAGAATT against Mtmr7, the z-score is inactive: 1.52.

As to GGAGAAAGAAUUCAUUUCCTT against Dync1h1, the z-score is inactive: 0.387.

CCUUCUGAAACCUAGCUCATT against Tradd: the z-score was inactive: -1.4.

As for GGAAGUGGUGGCCAUCAAGTT against Stk25, the z-score is inactive: 1.08.

Consider CCAUCAUGUAUCAAUGACATT against Olfr867, for which the z-score was inactive: -1.26.

For the sequence CGUAAUUUUGGAAAAGCCUTT against Emb, the z-score was inactive: 0.246.

As to CGAGACCUACAUCUUGAAUTT against Smpd1, the z-score is inactive: 1.12.

Consider GGCCAUGCCACUCAUCUUUTT against Tpst2, for which the z-score is inactive: -1.31.

For the sequence GGACUGAAUGCAAGUGAAGTT against Mslnl, the z-score is inactive: -0.379.

Take GGAGACUCAGCAGAUUAUUTT against Gzmn: the z-score was inactive: -0.627.

GGCAAUGAAUUUAACAAUCTT against Zfp874a: the z-score was inactive: -0.351.

In the case of GGAUGGCCAAGUAUGAACUTT against Gpr153, the z-score was inactive: -0.529.

As for GCUUACAAGCUGGUAUCAUTT against Gm5134, the z-score is inactive: -0.564.

For the sequence CGAUACCCUCACCAGAUUUTT against Limk1, the z-score was inactive: 1.79.

In the case of GCCUUCUGCUUAGUUACUGTT against Krtap6-1, the z-score is inactive: 1.21.

Regarding GGCUCCAGGAAACAAAGAUTT against Ubtd1, the z-score was inactive: 0.206.

For the sequence GGAAGAAAGGAAAUGUUGUTT against Ctsh, the z-score is inactive: -0.179.

Take GGAAUCCUCUUCAGACAAATT against Hivep1: the z-score is inactive: 0.818.

Take GGCCUUGUAUUACCAUCGATT against Ppp1r9b: the z-score was inactive: 0.0508.

CCGUCAAAACAUUACCAUUTT against Hmcn2: the z-score is inactive: -0.363.

Regarding GGGUGUGGCUGACUUUGAUTT against Otof, the z-score was inactive: -0.429.

For GAUGCAAGAUGACAAGACATT against Rgs6, the z-score was inactive: -0.541.

In the case of CCUGACAGACCGACAAGUGTT against Hoxc11, the z-score was active: -2.

On to GGUCCCUGUCAAGACCAAATT against Prap1, for which the z-score is inactive: 0.921.

On to GGAGUAUGCACCACUCAAATT against Acrv1, for which the z-score was inactive: 0.795.

For CGGAAAAAUGGAAGUAUAGTT against Mrtfb, the z-score was inactive: -0.687.

For the sequence GCCAUGAGGUCUGUUCUUATT against Ubr3, the z-score is inactive: -0.572.

On to GCACCACUGCCUAUAUAAGTT against Acad8, for which the z-score was inactive: -1.36.

Turning to GGUGAAGUGAGCCUUUGUGTT against Cfhr1, the z-score was inactive: -0.329.

With GGGUCUAAAGAUAUCUGUUTT against Rbm12, the z-score is inactive: -0.898.

Regarding CCAUUUGUCUAUGAAUGUGTT against Tm6sf1, the z-score is inactive: -0.901.

With CGAGGAGUUGGAUUUCAGGTT against Dnmbp, the z-score was inactive: -0.713.

As to GCAAGGAGGUCCAACUAAGTT against Fzd8, the z-score is inactive: 0.239.

On to CCCUAACACUGCUACCACGTT against Zfp36l3, for which the z-score is inactive: -0.417.

For GCCUUCCACUACCUUACGUTT against Kcnk3, the z-score is inactive: 0.067.

On to GCCUUAGGGAGUGUUAAAATT against Spink8, for which the z-score was inactive: -0.304.

For the sequence GGUCCACCUGUGAAUGUGATT against Glra4, the z-score is inactive: -1.1.

Turning to GCUGUCAAAUUAACCUGUGTT against Spin2c, the z-score is active: -2.31.

As for GGGUGUUUGAAUCUAGUAUTT against Nktr, the z-score is inactive: 1.22.

As to GCUUCAGACCUAUUUACCATT against Wdr26, the z-score was inactive: 0.0713.

Regarding GACCAAGUUCAAAAUUCGATT against Lilr4b, the z-score is inactive: -0.884.

As to CCCUACUAUUGACGAAAACTT against Hpn, the z-score was inactive: 1.66.

Regarding CCUUAAAUGUGGACCAUAATT against Dlc1, the z-score is inactive: 0.508.

Regarding CCCUUACAUCCAUCAACUATT against Dcbld2, the z-score is inactive: -1.04.

For the sequence GGCCAAAAGUGUUCUCUACTT against Olfr1101, the z-score is inactive: 0.294.

As to GGAAAUCAACCACUUUCUCTT against Olfr1494, the z-score is inactive: -0.549.

Regarding GGCUAUAAAAGCACAGUUUTT against Slc25a26, the z-score is inactive: -0.61.
